Values from PubChem BioAssay AID1159578 (Peter MacCallum Cancer Centre, 2015)
The deposit covers about 18,000 reagents; shown is an unselected part. About 1,030 of all reagents (5.7%) were called active. 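Inactive calls also include pools with fewer than 3300 nuclei, whose migration was not assessed.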 The raw values are shown without normalisation. Unmarked entries are inactive. Not all columns of the deposit are shown.

Aim: 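Genome-wide hunt for genes controlling movement of lymphatic endothelial cells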 (primary screen)
System: human lymphatic endothelial cells
Reagents: siRNA pool against human genes, 40 nM
Timing: 48 h after transfection
Measured: 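Cells stained with dye and imaged after a scratch; covered wound area and nuclei counted, duplicates averaged, migration set against mock wells and turned into a robust z-score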
Scale: migration robust z-score: higher = faster migration into the scratch; nuclei per well: higher = more cells in the well
Hit rule: 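Migration changed when robust z exceeds 2 or falls below -2 and mean nuclei number is at least 3300; otherwise not called changed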
Calls: active = migration changed; inactive = no migration change, or too few cells

gene knocked down | migration robust z-score | nuclei per well, duplicate mean
F8A2 | -0.3 | 5346
FOXE3 | -0.62 | 5466
SRGAP2 | 0.04 | 7166
DSCAM | -1.41 | 5388
MTUS1 | 0.2 | 5652
SLC9B2 | -2.89 (active) | 3699
FSTL5 | 0.68 | 5716
ZNF569 | 1.44 | 5799
IGF2BP1 | -1.2 | 5916
ZNF430 | 0.04 | 6214
TRMT9B | -0.7 | 5140
RBM17 | 0.1 | 5920
CLCN1 | -0.13 | 5650
EIF4E | -0.34 | 6038
RBKS | -3.17 | 2982
TOMM40 | -1.04 | 6666
MKLN1 | 0.66 | 5822
SYNGR4 | -0.7 | 4526
CASKIN2 | 0.96 | 6026
MED7 | -1.68 | 4796
NPAS2 | 0 | 4942
FAM234A | -1.66 | 6712
PIGB | 0.36 | 7298
HOOK2 | 1.34 | 3787
COX7B2 | 0.84 | 5184
CMKLR2 | 0.86 | 5636
CD19 | -1.43 | 5651
CTSL | 0.52 | 5372
GNRH2 | 0.56 | 6150
CTRL | 3.32 (active) | 5256
GALNT15 | -1.06 | 6664
IKZF3 | 0.18 | 6931
PDC | 0.7 | 5020
FOXN3 | 0.6 | 6224
A3GALT2 | 0.06 | 5788
ANKRD10 | -0.3 | 5634
COPS6 | -0.14 | 5520
FBXL16 | -1.22 | 5417

An excerpt taken from the entries so far:
gene knocked down | migration robust z-score | nuclei per well, duplicate mean
CD19 | -1.43 | 5651
CTSL | 0.52 | 5372
GNRH2 | 0.56 | 6150
CTRL | 3.32 (active) | 5256
GALNT15 | -1.06 | 6664
IKZF3 | 0.18 | 6931
PDC | 0.7 | 5020
FOXN3 | 0.6 | 6224
A3GALT2 | 0.06 | 5788
ANKRD10 | -0.3 | 5634
COPS6 | -0.14 | 5520

Next results follow:
gene knocked down | migration robust z-score | nuclei per well, duplicate mean
NDUFB4 | -2.02 (active) | 3566
TMEM100 | -0.77 | 4975
CNDP2 | -0.18 | 4706
FAM153B | 1.29 | 6223
CAMK2G | -1.38 | 6091
GNG4 | 0.13 | 6390
ANKMY1 | 0.56 | 5639
NCBP3 | -0.82 | 7806
CREB5 | 0.24 | 6420
NLRX1 | 0.71 | 4178
REN | 0.05 | 5702
ANAPC11 | 0.96 | 3702
MCTP2 | -0.2 | 4840
LNX1 | 0.47 | 6472
SLC66A1 | -0.2 | 5622
EPHB4 | -1.79 | 5736
NKX2-3 | 0.91 | 5616
CHN1 | 0.19 | 6535
LGALS3 | 0.83 | 5292
CD70 | 0.64 | 5714
TNFSF15 | 1.73 | 5302
SLC17A9 | -0.92 | 4804
SH3TC1 | -0.04 | 5060
ARHGEF35 | -1.13 | 5676
INO80B | -1.48 | 5700
RFXAP | -0.96 | 4852
PER1 | 2.21 (active) | 6091
SPATA31A3 | 0.22 | 5239
METTL27 | -0.18 | 5416
BRME1 | 1.48 | 6694
CLCA2 | 0.75 | 5554
CHRNB4 | -0.36 | 4887
SLC46A1 | 1.17 | 6440
SYNPO | -0.22 | 4556
CT47A1 | -2.2 (active) | 5746
